The results in this text go back to patent US5041570A, “Photosensitive 4,4'-diazidostilbene derivative” (priority 1988, dated 1991).

Data set [1] is described as follows: Developability with water and occurrence of swelling of coated plate. The note with it: with water.
Data set [2] in a line: Sensitivity by step tablet method (Kodak step tablet No.2). The following applies: sand-blasted aluminum plate, 1-kW metal halide lamp, 20 cm, 30 seconds, developed with water.

As to `CCCCCN(CCCCC)S(=O)(=O)c1cc(N=[N+]=[N-])ccc1C=Cc1ccc(N=[N+]=[N-])cc1S(=O)(=O)N(CCCCC)CCCCC` [Amide No. 15], in data set [1] (Table 4), the Developability result is “Good” and the Swelling result is recorded as “None”. The “Sensitivity (Gradation scale No. of Kodak step Table No. 2)” value in data set [2] (Table 4) is 11.
Consider `COCCOCCNS(=O)(=O)c1cc(N=[N+]=[N-])ccc1C=Cc1ccc(N=[N+]=[N-])cc1S(=O)(=O)NCCOCCOC` [Amide No. 7], for which, in data set [1] (Table 2), the Developability entry is on record as “Good” and the Swelling result is “None”. Also, the “Sensitivity (Gradation scale No. of Kodak step Table No. 2)” value in data set [2] (Table 2) turned out to be 12.
The matching figures for `CCOCCNS(=O)(=O)c1cc(N=[N+]=[N-])ccc1C=Cc1ccc(N=[N+]=[N-])cc1S(=O)(=O)NCCOCC` [Amide No. 8]: “Good”, “None” and 13.
For the compound `CCCCCCCCNS(=O)(=O)c1cc(N=[N+]=[N-])ccc1C=Cc1ccc(N=[N+]=[N-])cc1S(=O)(=O)NCCCCCCCC` [Amide No. 9], in data set [1] (Table 4), the Developability result is listed as “Good” and the Swelling result is listed as “None”. Also, in data set [2] (Table 4), the “Sensitivity (Gradation scale No. of Kodak step Table No. 2)” value is 11.
As to `[N-]=[N+]=Nc1ccc(C=Cc2ccc(N=[N+]=[N-])cc2S(=O)(=O)[O-])c(S(=O)(=O)[O-])c1.[Na+].[Na+]` [Sodium salt, sodium 4,4'-diazidostilbene-2,2'-disulfonate, reference compound], the Developability entry in data set [1] (Table 2) and in data set [1] (Table 4) was “Good” throughout. Moreover, the “Sensitivity (Gradation scale No. of Kodak step Table No. 2)” value in data set [2] (Table 2) and in data set [2] (Table 4) was 9 each time.
Consider `CCCCCCCNS(=O)(=O)c1cc(N=[N+]=[N-])ccc1C=Cc1ccc(N=[N+]=[N-])cc1S(=O)(=O)NCCCCCCC` [Amide No. 11], for which, in data set [1] (Table 4), the Developability result is on record as “Good” and the Swelling entry is reported as “None”. In data set [2] (Table 4), the “Sensitivity (Gradation scale No. of Kodak step Table No. 2)” value is 11.
On to `CCCCN(C)S(=O)(=O)c1cc(N=[N+]=[N-])ccc1C=Cc1ccc(N=[N+]=[N-])cc1S(=O)(=O)N(C)CCCC` [Amide No. 14], for which, in data set [1] (Table 4), the Developability result is recorded as “Good” and the Swelling result is on record as “None”. Also, the “Sensitivity (Gradation scale No. of Kodak step Table No. 2)” value in data set [2] (Table 4) is given as 11.
As for `[N-]=[N+]=Nc1ccc(C=Cc2ccc(N=[N+]=[N-])cc2S(=O)(=O)NCCO)c(S(=O)(=O)NCCO)c1` [Amide No. 2], in data set [1] (Table 2), the Developability result is listed as “Good” and the Swelling entry was “None”. For the same compound, the “Sensitivity (Gradation scale No. of Kodak step Table No. 2)” value in data set [2] (Table 2) was 11.
`[N-]=[N+]=Nc1ccc(C=Cc2ccc(N=[N+]=[N-])cc2S(=O)(=O)NCCOCCO)c(S(=O)(=O)NCCOCCO)c1` [Amide No. 4]: in data set [1] (Table 2), the Developability entry is “Good” and the Swelling result was “None”. Besides, the “Sensitivity (Gradation scale No. of Kodak step Table No. 2)” value in data set [2] (Table 2) stood at 11.
As to `CC(C)CNS(=O)(=O)c1cc(N=[N+]=[N-])ccc1C=Cc1ccc(N=[N+]=[N-])cc1S(=O)(=O)NCC(C)C` [Amide No. 10], in data set [1] (Table 4), the Developability entry was “Good” and the Swelling result is given as “None”. Besides, in data set [2] (Table 4), the “Sensitivity (Gradation scale No. of Kodak step Table No. 2)” value turned out to be 12.
As for `[N-]=[N+]=Nc1ccc(C=Cc2ccc(N=[N+]=[N-])cc2S(=O)(=O)NCCCO)c(S(=O)(=O)NCCCO)c1` [Amide No. 1], in data set [1] (Table 2), the Developability entry was “Good” and the Swelling entry is recorded as “None”. Moreover, in data set [2] (Table 2), the “Sensitivity (Gradation scale No. of Kodak step Table No. 2)” value stood at 13.
As to `CCOCCOS(=O)(=O)c1cc(N=[N+]=[N-])ccc1C=Cc1ccc(N=[N+]=[N-])cc1S(=O)(=O)OCCOCC` [Ester B, reference compound], in data set [1] (Table 2), the Swelling result was “None”. Besides, the “Sensitivity (Gradation scale No. of Kodak step Table No. 2)” value in data set [2] (Table 2) came to 10.
Consider `CC(CCO)NS(=O)(=O)c1cc(N=[N+]=[N-])ccc1C=Cc1ccc(N=[N+]=[N-])cc1S(=O)(=O)NC(C)CCO` (centres unmarked) [Amide No. 3], for which, in data set [1] (Table 2), the Developability entry is “Good” and the Swelling entry was “None”. The “Sensitivity (Gradation scale No. of Kodak step Table No. 2)” value in data set [2] (Table 2) came out at 12.
Consider `CCCCOS(=O)(=O)c1cc(N=[N+]=[N-])ccc1C=Cc1ccc(N=[N+]=[N-])cc1S(=O)(=O)OCCCC` [Ester C, reference compound], for which the Swelling result in data set [1] (Table 4) was “None”. Also, the “Sensitivity (Gradation scale No. of Kodak step Table No. 2)” value in data set [2] (Table 4) was 10.
